# ± gives the standard deviation of the averaged measurements. The list shows a part of the results.
# Amino acid sequences for entries named in this document (tags omitted). A change or cut given only in a name is not applied to a line headed by its entry.
# UniProt Q9Y3C8: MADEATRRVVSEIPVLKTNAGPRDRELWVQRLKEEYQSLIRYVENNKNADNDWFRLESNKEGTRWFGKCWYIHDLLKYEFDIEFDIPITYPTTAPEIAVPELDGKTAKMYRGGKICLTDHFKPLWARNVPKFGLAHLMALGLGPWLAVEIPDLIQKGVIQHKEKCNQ
# UniProt Q9Y294, whole entry: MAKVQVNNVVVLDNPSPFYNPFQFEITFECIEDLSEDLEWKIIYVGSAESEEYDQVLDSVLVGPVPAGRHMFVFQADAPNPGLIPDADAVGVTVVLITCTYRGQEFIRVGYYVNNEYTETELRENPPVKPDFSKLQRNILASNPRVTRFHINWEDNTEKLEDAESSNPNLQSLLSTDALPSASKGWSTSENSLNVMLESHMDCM
# UniProt Q9Y639: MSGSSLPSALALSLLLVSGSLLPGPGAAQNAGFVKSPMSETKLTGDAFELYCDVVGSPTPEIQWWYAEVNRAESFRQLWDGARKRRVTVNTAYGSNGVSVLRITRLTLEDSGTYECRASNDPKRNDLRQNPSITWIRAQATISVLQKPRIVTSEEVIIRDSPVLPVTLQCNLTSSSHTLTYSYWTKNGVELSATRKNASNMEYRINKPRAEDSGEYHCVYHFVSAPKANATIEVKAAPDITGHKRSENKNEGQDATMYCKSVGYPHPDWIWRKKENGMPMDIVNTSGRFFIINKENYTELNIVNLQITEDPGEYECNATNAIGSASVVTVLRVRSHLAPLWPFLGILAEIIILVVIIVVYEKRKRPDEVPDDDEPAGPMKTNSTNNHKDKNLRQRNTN
# UniProt Q9UQ90: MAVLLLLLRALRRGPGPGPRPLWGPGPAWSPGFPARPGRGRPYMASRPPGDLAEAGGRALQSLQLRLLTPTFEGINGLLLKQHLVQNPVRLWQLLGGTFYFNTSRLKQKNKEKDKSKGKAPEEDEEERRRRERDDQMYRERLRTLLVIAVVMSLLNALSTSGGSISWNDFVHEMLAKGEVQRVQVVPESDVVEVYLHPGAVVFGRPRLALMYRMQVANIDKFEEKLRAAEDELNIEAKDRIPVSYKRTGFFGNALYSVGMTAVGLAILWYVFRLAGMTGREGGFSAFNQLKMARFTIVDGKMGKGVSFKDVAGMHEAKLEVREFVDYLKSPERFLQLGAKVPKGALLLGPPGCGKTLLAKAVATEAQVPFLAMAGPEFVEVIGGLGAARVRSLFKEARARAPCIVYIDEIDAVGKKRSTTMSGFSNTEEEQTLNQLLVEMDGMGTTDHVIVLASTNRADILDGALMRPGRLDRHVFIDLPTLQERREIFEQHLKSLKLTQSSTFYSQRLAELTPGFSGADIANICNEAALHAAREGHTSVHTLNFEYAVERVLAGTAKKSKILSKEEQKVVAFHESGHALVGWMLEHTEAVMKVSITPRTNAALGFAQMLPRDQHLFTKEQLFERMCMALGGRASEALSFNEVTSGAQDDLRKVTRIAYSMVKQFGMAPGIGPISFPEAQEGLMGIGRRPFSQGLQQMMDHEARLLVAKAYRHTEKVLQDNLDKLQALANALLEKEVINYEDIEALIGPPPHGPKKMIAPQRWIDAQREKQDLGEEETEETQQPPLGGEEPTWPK
# Compound: Nc1nc2c(ncn2[C@@H]2O[C@H](COP(=O)(O)OP(=O)(O)OP(=O)(O)O)[C@@H](O)[C@H]2O)c(=O)[nH]1 [guanosine triphosphate]
# Test: NP40-soluble protein abundance relative to vehicle (solubility fold change) (ratio); higher = more soluble protein in presence of GTP
# Procedure: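 Solubility proteome profiling in Jurkat crude lysate. Lysate was treated with Mg-GTP (0.1-10 mM) for 10 min at room temperature and 3 min at 37 °C, then solubilised with 0.8% NP40 and benzonase, followed by ultracentrifugation. Proteins were quantified by TMT10 LC-MS/MS; the value is the NP40-soluble abundance relative to the NP40-processed vehicle, from 3 independent experiments.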
Target,NP40-soluble protein abundance (concentration: 0.1mM),NP40-soluble protein abundance (concentration: 0.5mM),NP40-soluble protein abundance (concentration: 1mM),NP40-soluble protein abundance (concentration: 2mM),NP40-soluble protein abundance (concentration: 4mM),NP40-soluble protein abundance (concentration: 6mM),NP40-soluble protein abundance (concentration: 8mM),NP40-soluble protein abundance (concentration: 10mM)
UFC1 (UniProt Q9Y3C8),0.8 ± 0.12,0.779 ± 0.082,0.952 ± 0.14,0.953 ± 0.083,0.908 ± 0.083,0.928 ± 0.078,0.819 ± 0.16,0.999 ± 0.17
C19orf53 (UniProt Q9UNZ5),1.03 ± 0.15,0.97 ± 0.16,1.05 ± 0.19,1.08 ± 0.26,1.15 ± 0.27,1.38 ± 0.48,1.38 ± 0.27,1.61 ± 0.21
ASF1A (UniProt Q9Y294),0.898 ± 0.14,0.957 ± 0.14,0.874 ± 0.06,0.85 ± 0.052,0.855 ± 0.061,0.845 ± 0.13,0.822 ± 0.033,0.807 ± 0.047
UniProt Q9Y639 and related entries,0.879 ± 0.045,0.86 ± 0.05,0.95 ± 0.035,0.927 ± 0.039,0.95 ± 0.038,0.92 ± 0.042,0.902 ± 0.039,0.994 ± 0.081
SPG7 (UniProt Q9UQ90),1.06 ± 0.042,1.04 ± 0.077,1.03 ± 0.096,1.02 ± 0.068,1.03 ± 0.11,1.04 ± 0.099,0.972 ± 0.065,0.997 ± 0.027

# Source: the supplement of paper PMC6411743
